Chains of the proteins cited; added tags and fusions are not shown.
UniProt Q13263: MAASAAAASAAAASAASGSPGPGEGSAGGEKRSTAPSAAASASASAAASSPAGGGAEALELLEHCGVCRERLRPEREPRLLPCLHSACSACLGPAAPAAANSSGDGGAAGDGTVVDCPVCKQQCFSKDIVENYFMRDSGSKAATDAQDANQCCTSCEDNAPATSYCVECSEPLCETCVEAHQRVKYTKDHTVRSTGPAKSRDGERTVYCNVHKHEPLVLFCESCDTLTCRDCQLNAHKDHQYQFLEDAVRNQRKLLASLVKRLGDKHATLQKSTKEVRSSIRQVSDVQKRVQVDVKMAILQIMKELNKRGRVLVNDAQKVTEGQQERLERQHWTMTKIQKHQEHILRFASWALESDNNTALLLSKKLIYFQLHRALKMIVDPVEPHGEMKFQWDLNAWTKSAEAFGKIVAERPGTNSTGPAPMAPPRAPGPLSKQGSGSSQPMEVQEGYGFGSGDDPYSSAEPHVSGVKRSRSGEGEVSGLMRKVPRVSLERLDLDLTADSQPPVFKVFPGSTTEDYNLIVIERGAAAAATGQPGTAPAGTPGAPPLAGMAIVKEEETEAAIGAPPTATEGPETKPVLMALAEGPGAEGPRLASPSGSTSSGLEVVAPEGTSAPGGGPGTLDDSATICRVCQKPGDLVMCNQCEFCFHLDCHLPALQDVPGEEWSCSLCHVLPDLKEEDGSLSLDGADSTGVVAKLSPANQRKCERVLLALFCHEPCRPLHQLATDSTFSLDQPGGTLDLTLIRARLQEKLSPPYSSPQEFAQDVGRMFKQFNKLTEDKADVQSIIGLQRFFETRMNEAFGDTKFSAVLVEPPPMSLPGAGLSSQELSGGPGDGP

In paper PMC10298087:

Target: wild-type TRIM28 (endogenous, K562 cells) (human (endogenous in K562)) (UniProt Q13263)
Assay: affinity purification with mass spectrometry; IP of endogenous TRIM28 or TRIM28-K304Q from K562 cells with anti-TRIM28-N-conjugated protein A beads; washed, eluted with the antibody-generating peptide; MS (LTQ-Orbitrap Velos, Mascot)

Row | Binder | binding
1 | ZNF778 (protein, UniProt Q96MU6 1-729) MAAPDLAHGGHVSRDSVCLHEEQTQAAGMVAGWLINCYQDAVTFDDVAVDFTQEEWTLLDPSQRDLYRDVMLENYENLASVEWRLKTKGPALRQDRSWFRASNETQTARSHNGGQLCDRTQCGEAFSEHSGLSTHVRTQNTGDSCVSNHYERDFFIPCQKTLFKIGEQFSVLGQCGKAFSSTPNVVSQQACTRDRSLDYSSCGEVFLNQSYLQARAGSHNGEETWKWKPCGKALTHSMGCATPVEMHAVRNPHVCRECGKAFRYTAYLTGRVQVHPGEKPCELEECGKASPVSSSLTQHVRIHAAEKPCECKECGKAFTGLSGLSKHVQTDPGQKPYECKDCGKACGGFYLLNEHGKTHTREKPFACVVCGKYFRNSSCLNNHVRIHTGIKPYTCSYCGKAFTVRCGLTRHVRTHTGEKPYTCKDCGKAFCTSSGLTEHVRTHTGEKPYECKDCGKSFTVSSSLTEHARIHTGEKPYECKQCGKAFTGRSGLTKHMRTHTGEKPYECKDCGKAYNRVYLLNEHVKTHTEEKPFICTVCRKSFRNSSCLNKHIQIHTGIKPYECKDCGKTFTVSSSLTEHIRTHTGEKPYECKVCGKAFTTSSHLIVHIRTHTGEKPYICKECGKAFASSSHLIEHRRTHTGEKPYICNECGKAFRASSHLHKHGRIHTGQKPYKCKECGKAYNRFYLLKEHLKTYTEEQVFVCKDCGKSFKNSSCLNHHTQIHTDEKPF | binds
2 | ZBT11 (protein, UniProt O95625 1-1053) MSSEESYRAILRYLTNEREPYAPGTEGNVKRKIRKAAACYVVRGGTLYYQRRQRHRKTFAELEVVLQPERRRDLIEAAHLGPGGTHHTRHQTWHYLSKTYWWRGILKQVKDYIKQCSKCQEKLDRSRPISDVSEMLEELGLDLESGEESNESEDDLSNFTSSPTTASKPAKKKPVSKHELVFVDTKGVVKRSSPKHCQAVLKQLNEQRLSNQFCDVTLLIEGEEYKAHKSVLSANSEYFRDLFIEKGAVSSHEAVVDLSGFCKASFLPLLEFAYTSVLSFDFCSMADVAILARHLFMSEVLEICESVHKLMEEKQLTVYKKGEVQTVASTQDLRVQNGGTAPPVASSEGTTTSLPTELGDCEIVLLVNGELPEAEQNGEVGRQPEPQVSSEAESALSSVGCIADSHPEMESVDLITKNNQTELETSNNRENNTVSNIHPKLSKENVISSSPEDSGMGNDISAEDICAEDIPKHRQKVDQPLKDQENLVASTAKTDFGPDDDTYRSRLRQRSVNEGAYIRLHKGMEKKLQKRKAVPKSAVQQVAQKLVQRGKKMKQPKRDAKENTEEASHKCGECGMVFQRRYALIMHKLKHERARDYKCPLCKKQFQYSASLRAHLIRHTRKDAPSSSSSNSTSNEASGTSSEKGRTKREFICSICGRTLPKLYSLRIHMLKHTGVKPHACQVCGKTFIYKHGLKLHQSLHQSQKQFQCELCVKSFVTKRSLQEHMSIHTGESKYLCSVCGKSFHRGSGLSKHFKKHQPKPEVRGYHCTQCEKSFFEARDLRQHMNKHLGVKPFQCQFCDKCYSWKKDWYSHVKSHSVTEPYRCNICGKEFYEKALFRRHVKKATHGKKGRAKQNLERVCEKCGRKFTQLREYRRHMNNHEGVKPFECLTCGVAWADARSLKRHVRTHTGERPYVCPVCSEAYIDARTLRKHMTKFHRDYVPCKIMLEKDTLQFHNQGTQVAHAVSILTAGMQEQESSGPQELETVVVTGETMEALEAVAATEEYPSVSTLSDQSIMQVVNYVLAQQQGQKLSEVAEAIQTVKVEVAHISGGE | binds
3 | ZCCHC4 (protein, UniProt Q9H5U6 1-513) MAASRNGFEAVEAEGSAGCRGSSGMEVVLPLDPAVPAPLCPHGPTLLFVKVTQGKEETRRFYACSACRDRKDCNFFQWEDEKLSGARLAAREAHNRRCQPPLSRTQCVERYLKFIELPLTQRKFCQTCQQLLLPDDWGQHSEHQVLGNVSITQLRRPSQLLYPLENKKTNAQYLFADRSCQFLVDLLSALGFRRVLCVGTPRLHELIKLTASGDKKSNIKSLLLDIDFRYSQFYMEDSFCHYNMFNHHFFDGKTALEVCRAFLQEDKGEGIIMVTDPPFGGLVEPLAITFKKLIAMWKEGQSQDDSHKELPIFWIFPYFFESRICQFFPSFQMLDYQVDYDNHALYKHGKTGRKQSPVRIFTNIPPNKIILPTEEGYRFCSPCQRYVSLENQHCELCNSCTSKDGRKWNHCFLCKKCVKPSWIHCSICNHCAVPDHSCEGPKHGCFICGELDHKRSTCPNIATSKRANKAVRKQKQRKSNKMKMETTKGQSMNHTSATRRKKRRERAHQYLGS | binds
4 | FBRL (protein, UniProt P22087 1-321) MKPGFSPRGGGFGGRGGFGDRGGRGGRGGFGGGRGRGGGFRGRGRGGGGGGGGGGGGGRGGGGFHSGGNRGRGRGGKRGNQSGKNVMVEPHRHEGVFICRGKEDALVTKNLVPGESVYGEKRVSISEGDDKIEYRAWNPFRSKLAAAILGGVDQIHIKPGAKVLYLGAASGTTVSHVSDIVGPDGLVYAVEFSHRSGRDLINLAKKRTNIIPVIEDARHPHKYRMLIAMVDVIFADVAQPDQTRIVALNAHTFLRNGGHFVISIKANCIDSTASAEAVFASEVKKMQQENMKPQEQLTLEPYERDHAVVVGVYRPPPKVKN | binds
5 | EDC4 (protein, UniProt Q6P2E9 1-1401) MASCASIDIEDATQHLRDILKLDRPAGGPSAESPRPSSAYNGDLNGLLVPDPLCSGDSTSANKTGLRTMPPINLQEKQVICLSGDDSSTCIGILAKEVEIVASSDSSISSKARGSNKVKIQPVAKYDWEQKYYYGNLIAVSNSFLAYAIRAANNGSAMVRVISVSTSERTLLKGFTGSVADLAFAHLNSPQLACLDEAGNLFVWRLALVNGKIQEEILVHIRQPEGTPLNHFRRIIWCPFIPEESEDCCEESSPTVALLHEDRAEVWDLDMLRSSHSTWPVDVSQIKQGFIVVKGHSTCLSEGALSPDGTVLATASHDGYVKFWQIYIEGQDEPRCLHEWKPHDGRPLSCLLFCDNHKKQDPDVPFWRFLITGADQNRELKMWCTVSWTCLQTIRFSPDIFSSVSVPPSLKVCLDLSAEYLILSDVQRKVLYVMELLQNQEEGHACFSSISEFLLTHPVLSFGIQVVSRCRLRHTEVLPAEEENDSLGADGTHGAGAMESAAGVLIKLFCVHTKALQDVQIRFQPQLNPDVVAPLPTHTAHEDFTFGESRPELGSEGLGSAAHGSQPDLRRIVELPAPADFLSLSSETKPKLMTPDAFMTPSASLQQITASPSSSSSGSSSSSSSSSSSLTAVSAMSSTSAVDPSLTRPPEELTLSPKLQLDGSLTMSSSGSLQASPRGLLPGLLPAPADKLTPKGPGQVPTATSALSLELQEVEPLGLPQASPSRTRSPDVISSASTALSQDIPEIASEALSRGFGSSAPEGLEPDSMASAASALHLLSPRPRPGPELGPQLGLDGGPGDGDRHNTPSLLEAALTQEASTPDSQVWPTAPDITRETCSTLAESPRNGLQEKHKSLAFHRPPYHLLQQRDSQDASAEQSDHDDEVASLASASGGFGTKVPAPRLPAKDWKTKGSPRTSPKLKRKSKKDDGDAAMGSRLTEHQVAEPPEDWPALIWQQQRELAELRHSQEELLQRLCTQLEGLQSTVTGHVERALETRHEQEQRRLERALAEGQQRGGQLQEQLTQQLSQALSSAVAGRLERSIRDEIKKTVPPCVSRSLEPMAGQLSNSVATKLTAVEGSMKENISKLLKSKNLTDAIARAAADTLQGPMQAAYREAFQSVVLPAFEKSCQAMFQQINDSFRLGTQEYLQQLESHMKSRKAREQEAREPVLAQLRGLVSTLQSATEQMAATVAGSVRAEVQHQLHVAVGSLQESILAQVQRIVKGEVSVALKEQQAAVTSSIMQAMRSAAGTPVPSAHLDCQAQQAHILQLLQQGHLNQAFQQALTAADLNLVLYVCETVDPAQVFGQPPCPLSQPVLLSLIQQLASDLGTRTDLKLSYLEEAVMHLDHSDPITRDHMGSVMAQVRQKLFQFLQAEPHNSLGKAARRLSLMLHGLVTPSLP | binds
6 | ZNF12 (protein, UniProt P17014 1-697) MNKSLGPVSFKDVAVDFTQEEWQQLDPEQKITYRDVMLENYSNLVSVGYHIIKPDVISKLEQGEEPWIVEGEFLLQSYPDEVWQTDDLIERIQEEENKPSRQTVFIETLIEERGNVPGKTFDVETNPVPSRKIAYKNSLCDSCEKCLTSVSEYISSDGSYARMKADECSGCGKSLLHIKLEKTHPGDQAYEFNQNGEPYTLNEESLYQKIRILEKPFEYIECQKAFQKDTVFVNHMEEKPYKWNGSEIAFLQMSDLTVHQTSHMEMKPYECSECGKSFCKKSKFIIHQRTHTGEKPYECNQCGKSFCQKGTLTVHQRTHTGEKPYECNECGKNFYQKLHLIQHQRTHSGEKPYECSYCGKSFCQKTHLTQHQRTHSGERPYVCHDCGKTFSQKSALNDHQKIHTGVKLYKCSECGKCFCRKSTLTTHLRTHTGEKPYECNECGKFFSRLSYLTVHYRTHSGEKPYECNECGKTFYLNSALMRHQRVHTGEKPYECNECGKLFSQLSYLTIHHRTHSGVKPYECSECGKTFYQNSALCRHRRIHKGEKPYECYICGKFFSQMSYLTIHHRIHSGEKPYECSECGKTFCQNSALNRHQRTHTGEKAYECYECGKCFSQMSYLTIHHRIHSGEKPFECNECGKAFSRMSYLTVHYRTHSGEKPYECTECGKKFYHKSAFNSHQRIHRRGNMNVIDVGRLL | binds
7 | ZNF25 (protein, UniProt P17030 1-456) MNKFQGPVTLKDVIVEFTKEEWKLLTPAQRTLYKDVMLENYSHLVSVGYHVNKPNAVFKLKQGKEPWILEVEFPHRGFPEDLWSIHDLEARYQESQAGNSRNGELTKHQKTHTTEKACECKECGKFFCQKSALIVHQHTHSKGKSYDCDKCGKSFSKNEDLIRHQKIHTRDKTYECKECKKIFYHLSSLSRHLRTHAGEKPYECNQCEKSFYQKPHLTEHQKTHTGEKPFECTECGKFFYVKAYLMVHQKTHTGEKPYECKECGKAFSQKSHLTVHQRMHTGEKPYKCKECGKFFSRNSHLKTHQRSHTGEKPYECKECRKCFYQKSALTVHQRTHTGEKPFECNKCGKTFYYKSDLTKHQRKHTGEKPYECTECGKSFAVNSVLRLHQRTHTGEKPYACKECGKSFSQKSHFIIHQRKHTGEKPYECQECGETFIQKSQLTAHQKTHTKKRNAEK | binds
8 | ZNF512 (protein, UniProt Q96ME7 1-567) MSSRLGAVPATSGPTTFKQQRSTRIVGAKNSRTQCSIKDNSFQYTIPHDDSLSGSSSASSCEPVSDFPASFRKSTYWMKMRRIKPAATSHVEGSGGVSAKGKRKPRQEEDEDYREFPQKKHKLYGRKQRPKTQPNPKSQARRIRKEPPVYAAGSLEEQWYLEIVDKGSVSCPTCQAVGRKTIEGLKKHMENCKQEMFTCHHCGKQLRSLAGMKYHVMANHNSLPILKAGDEIDEPSERERLRTVLKRLGKLRCMRESCSSSFTSIMGYLYHVRKCGKGAAELEKMTLKCHHCGKPYRSKAGLAYHLRSEHGPISFFPESGQPECLKEMNLESKSGGRVQRRSAKIAVYHLQELASAELAKEWPKRKVLQDLVPDDRKLKYTRPGLPTFSQEVLHKWKTDIKKYHRIQCPNQGCEAVYSSVSGLKAHLGSCTLGNFVAGKYKCLLCQKEFVSESGVKYHINSVHAEDWFVVNPTTTKSFEKLMKIKQRQQEEEKRRQQHRSRRSLRRRQQPGIELPETELSLRVGKDQRRNNEELVVSASCKEPEQEPVPAQFQKVKPPKTNHKRGRK | binds

No constants are given. Whether binding was seen depends on the method and setting. In cells and extracts the contact can be indirect. These calls come from enrichment with a bait or labelling near it, and not all partners need be listed.
